Data reported in PubChem BioAssay AID2685 (National Center for Advancing Translational Sciences (NCATS), 2010).
The other results are listed elsewhere or left out. Further columns of the screen follow, without active or inactive calls. The list favours compounds with an active or inconclusive main result. The note in brackets gives the kind of curve behind each potency; many fits are weak.

Test: qHTS Assay for Lipid Storage Modulators in Drosophila S3 Cells;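 on cell number change: cells counted by Cell Tracker Red CMTPX staining in the red channel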
Settings: BODIPY lipid droplet fluorescence, 18-24 h; for cell number change: measured here: cell count max response, cells fed with added oleic acid
In short: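 Drosophila S3 cells got compounds at several concentrations plus oleic acid (400 uM solution). Laser-scanning cytometry with 488 nm excitation read lipid droplets at 500-530 nm and cells at 575-640 nm. Percent activity was relative to 20 uM Triacsin C.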

[1] = measured here: lipid fluorescence (Fed channel) AC50, cells fed with added oleic acid
[2] = measured here: cell number channel AC50, cells fed with added oleic acid

With `CC1CC(C)CN(C(=O)C(Cc2ccccc2)NC(=O)c2ccccc2)C1` (stereo not drawn) the cell number change was 21% and the AC50 [1] was 20.6 µM [rising, single point].
For `Cc1ccc(-n2ncc3c2CCCC3NC(=O)c2ocnc2C)cc1C` (stereo not drawn), the cell number change was -39.6%, the AC50 [2] was 0.82 µM [falling, full curve] and the AC50 [1] was 16.4 µM [falling, partial curve].
For `COc1ccc(C(=O)N(Cc2ccco2)C(C(=O)NC2CCCC2)c2ccc(O)cc2)cc1OC` (stereo not drawn), the AC50 [1] was 0.291 µM [rising, partial curve, poor fit].
With `O=C(O)CCC(=O)Nc1nc(-c2ccccc2)cs1` the cell number change was 8.28% and the AC50 [1] was 6.51 µM [falling, single point].
In the case of `COc1ccc(NC(=O)c2ccc(OCC3CCCO3)cc2)cc1Cl` (stereo not drawn), the cell number change was 43% and the AC50 [2] was 5.17 µM [rising, partial curve].
Work on `Cc1nnc(NC(=O)c2ccc(-c3ccc(Cl)cc3)o2)s1` yielded a cell number change of 13.4%.
With `Cc1oc(-c2cc(F)ccc2F)nc1CN1CCN(c2cnccn2)CC1` the cell number change was 0.894%, the AC50 [2] was 3.66 µM [falling, partial curve] and the AC50 [1] was 2.06 µM [falling, partial curve].
In the case of `CCN1CCN(S(=O)(=O)c2ccc(OC)c3ccccc23)CC1`, the cell number change was -3.16% and the AC50 [1] was 0.092 µM [falling, full curve, poor fit].
In the case of `NC(=O)C1CCN(C(=O)c2ccc(NC3=NC4CS(=O)(=O)CC4S3)cc2)CC1` (stereo not drawn), the cell number change was -6.88% and the AC50 [1] was 0.206 µM [falling, full curve].
With `Cc1snc2sc(C(=O)c3ccc(Br)cc3)c(N)c12` the AC50 [2] was 1.64 µM [rising, partial curve] and the AC50 [1] was 3.26 µM [rising, partial curve].
In the case of `CC1CCN(c2ccc(NC(=O)c3ccccc3[N+](=O)[O-])cc2)CC1`, the cell number change was 127%, the AC50 [2] was 25.9 µM [rising, partial curve] and the AC50 [1] was 29.1 µM [rising, single point].
In the case of `CCOC(=O)C1=C(CS(=O)(=O)c2ccccc2)NC(=O)NC1c1ccccc1` (stereo not drawn), the cell number change was 0.646% and the AC50 [1] was 8.2 µM [rising, partial curve].
In the case of `Cc1ccc2c(c1)c(CC(=O)Nc1ccc(C)c(F)c1)c(C(=O)O)n2C`, the cell number change was -48.5% and the AC50 [2] was 20.6 µM [falling, single point].
For `Cc1cc(Br)ccc1NCc1ccccn1`, the cell number change was -34.2% and the AC50 [2] was 14.6 µM [falling, partial curve].
For `CCS(=O)(=O)c1nc(S(=O)(=O)c2ccc(C)cc2)c(NCCCN2CCOCC2)s1`, the cell number change was 31.7% and the AC50 [2] was 23.1 µM [rising, single point].
For `CCOc1ccc(Cl)cc1S(=O)(=O)N1CCN(c2ccc(C)c(C)c2)CC1`, the AC50 [2] was 2.06 µM [rising, single point].
In the case of `CC1(C)OC(=O)CC1C(=O)NCc1ccccc1` (stereo not drawn), the AC50 [1] was 25.9 µM [falling, single point].
In the case of `Cc1ccsc1C(=O)OCC(=O)NC1CCCC1`, the AC50 [1] was 0.0058 µM [falling, full curve, poor fit].
For `O=C(CCn1c(=O)c2ccccc2n(Cc2cccnc2)c1=O)NCc1ccc2c(c1)OCO2`, the cell number change was 9.69% and the AC50 [1] was 4.11 µM [rising, full curve].
With `CCc1ccc2c(c1)cc(CN(Cc1ccco1)C(C)=O)c1nnnn12` the cell number change was 38.4% and the AC50 [2] was 32.6 µM [rising, single point].
In the case of `Cc1ccc(-c2csc(NC(=O)CCNC(=O)c3ccccc3Cl)n2)cc1`, the cell number change was 45.6% and the AC50 [2] was 29.1 µM [rising, single point].
With `Cc1cccc(C)c1NC(=O)CN1CCN(C(=O)CN2C(=O)NC3(CCCCC3C)C2=O)CC1` (stereo not drawn) the cell number change was -5.89% and the AC50 [1] was 0.092 µM [falling, full curve, poor fit].
With `Cc1ccsc1/C=N/n1cnc2sc(C)c(C)c2c1=O` the cell number change was -13.5%.
In the case of `CCOc1cc(C2C(C#N)=C(N)Oc3cc(N)ccc32)ccc1O` (stereo not drawn), the cell number change was -31.2% and the AC50 [2] was 0.0731 µM [falling, full curve, poor fit].
For `CCc1nc2ccccc2c(C(=O)Oc2cccc3cccnc23)c1C`, the cell number change was -27.2% and the AC50 [1] was 32.6 µM [falling, single point].
For `CC(C)(C)C(=O)Cn1c[n+](N)cn1`, the cell number change was -34.6% and the AC50 [1] was 11.6 µM [falling, partial curve].
With `COc1c(/C=N/NC(=O)c2ccccc2O)c(CCN(C)C(C)=O)cc2c1OCO2` the cell number change was -3.95% and the AC50 [1] was 0.13 µM [rising, full curve].
In the case of `CCCCn1c(SCC(=O)O)nc2ccccc21`, the AC50 [1] was 0.146 µM [rising, full curve, poor fit].
In the case of `Nc1nc(SCC(=O)NCc2ccco2)[nH]c(=O)c1-c1ccccc1`, the cell number change was -4.72% and the AC50 [1] was 0.0231 µM [falling, full curve, poor fit].
For `Cc1cc(N2CCOCC2)nc2ccc(NC(=O)CCC(=O)N3CCCCC3)cc12`, the cell number change was 11.9% and the AC50 [1] was 18.4 µM [rising, single point].
In the case of `COC(=O)N/N=C/c1ccc(OS(=O)(=O)c2ccc(C)cc2)c(OC)c1`, the cell number change was 124% and the AC50 [2] was 29.1 µM [rising, partial curve].
For `O=C(COC(=O)c1ccco1)NCCc1ccc(Cl)cc1`, the cell number change was -0.389% and the AC50 [1] was 9.2 µM [rising, partial curve].
For `CS(=O)(=O)N(CC(=O)NCCSCc1cccc(Cl)c1)c1ccccc1F`, the cell number change was -10.6% and the AC50 [1] was 29.1 µM [falling, single point].
In the case of `Cc1ccccc1C(=O)N1CCC(C(=O)Nc2ccc(C)c(S(=O)(=O)N3CCCCC3)c2)CC1`, the cell number change was -2.33%, the AC50 [2] was 0.731 µM [falling, single point] and the AC50 [1] was 29.1 µM [falling, partial curve, poor fit].
With `CCc1ccc(OCC(O)CN2CCC(CN3C(=O)c4cccc5cccc(c45)C3=O)CC2)cc1` (stereo not drawn) the cell number change was 9.34% and the AC50 [1] was 32.6 µM [rising, partial curve, poor fit].
With `Cc1ccc(C2C(C#N)=C(N)Oc3cc(C)oc(=O)c32)o1` (stereo not drawn) the cell number change was -36.9%, the AC50 [2] was 29.1 µM [falling, single point] and the AC50 [1] was 29.1 µM [falling, single point].
With `O=C(/C=C/c1ccc(N2CCC(c3ccccc3)=N2)cc1)c1ccccc1` the cell number change was -33.7%, the AC50 [2] was 18.4 µM [falling, single point] and the AC50 [1] was 4.11 µM [falling, single point].
